Measurements reported in the supplement of paper PMC10032668.
± gives the standard deviation of the averaged measurements. Some of the results follow. Only hits are listed; about a third recur on repeated control peptides.

By UniProt entry, the sequences of proteins in these tests, tags left out.
SUPT16H, Q9Y5B9, UniProt Q9Y5B9, whole entry: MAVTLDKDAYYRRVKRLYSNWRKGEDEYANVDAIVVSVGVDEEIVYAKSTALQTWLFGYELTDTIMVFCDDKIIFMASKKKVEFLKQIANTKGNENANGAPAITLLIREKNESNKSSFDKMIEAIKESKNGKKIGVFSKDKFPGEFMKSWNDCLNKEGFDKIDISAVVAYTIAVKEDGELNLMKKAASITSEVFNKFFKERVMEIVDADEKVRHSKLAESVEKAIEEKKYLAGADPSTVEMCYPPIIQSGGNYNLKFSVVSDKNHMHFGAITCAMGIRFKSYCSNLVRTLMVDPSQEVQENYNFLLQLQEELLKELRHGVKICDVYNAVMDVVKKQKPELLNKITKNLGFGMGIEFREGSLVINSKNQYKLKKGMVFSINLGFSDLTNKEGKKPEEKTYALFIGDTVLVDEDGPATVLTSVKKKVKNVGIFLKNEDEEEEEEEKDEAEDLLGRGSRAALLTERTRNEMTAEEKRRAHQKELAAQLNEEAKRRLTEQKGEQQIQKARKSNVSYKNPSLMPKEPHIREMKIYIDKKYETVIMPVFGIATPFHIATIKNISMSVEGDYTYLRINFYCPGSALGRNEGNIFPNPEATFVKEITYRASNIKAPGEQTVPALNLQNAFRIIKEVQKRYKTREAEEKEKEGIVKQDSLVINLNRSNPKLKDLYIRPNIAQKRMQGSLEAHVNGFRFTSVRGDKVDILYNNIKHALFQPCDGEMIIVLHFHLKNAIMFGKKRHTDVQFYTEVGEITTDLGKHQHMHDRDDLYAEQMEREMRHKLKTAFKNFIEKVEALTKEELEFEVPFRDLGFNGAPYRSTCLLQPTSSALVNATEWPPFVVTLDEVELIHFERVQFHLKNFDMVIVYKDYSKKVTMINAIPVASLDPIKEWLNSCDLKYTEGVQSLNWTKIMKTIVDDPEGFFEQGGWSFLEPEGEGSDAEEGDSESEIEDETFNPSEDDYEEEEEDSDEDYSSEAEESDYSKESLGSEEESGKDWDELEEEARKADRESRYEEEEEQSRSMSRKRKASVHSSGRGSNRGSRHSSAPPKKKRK
ATP6AP1, Q15904, UniProt Q15904, whole entry: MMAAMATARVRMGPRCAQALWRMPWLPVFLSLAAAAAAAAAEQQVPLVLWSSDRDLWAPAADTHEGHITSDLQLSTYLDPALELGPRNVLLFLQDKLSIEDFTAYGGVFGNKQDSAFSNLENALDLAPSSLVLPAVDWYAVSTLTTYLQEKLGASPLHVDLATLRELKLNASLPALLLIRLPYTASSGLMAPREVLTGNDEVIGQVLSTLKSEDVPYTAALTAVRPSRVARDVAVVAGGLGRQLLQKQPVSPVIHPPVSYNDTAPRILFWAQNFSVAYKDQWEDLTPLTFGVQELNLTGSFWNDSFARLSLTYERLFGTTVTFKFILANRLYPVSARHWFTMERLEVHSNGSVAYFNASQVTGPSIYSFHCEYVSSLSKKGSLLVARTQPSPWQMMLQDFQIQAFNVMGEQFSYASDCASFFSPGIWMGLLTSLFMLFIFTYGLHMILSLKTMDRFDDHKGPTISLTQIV
DLX6, P56179, UniProt P56179, whole entry: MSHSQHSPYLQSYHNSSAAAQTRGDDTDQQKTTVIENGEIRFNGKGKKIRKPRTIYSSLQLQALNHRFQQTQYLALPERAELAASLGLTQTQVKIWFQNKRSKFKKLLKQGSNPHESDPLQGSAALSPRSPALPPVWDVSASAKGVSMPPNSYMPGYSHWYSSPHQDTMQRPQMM
KPNA4, O00629, UniProt O00629, whole entry: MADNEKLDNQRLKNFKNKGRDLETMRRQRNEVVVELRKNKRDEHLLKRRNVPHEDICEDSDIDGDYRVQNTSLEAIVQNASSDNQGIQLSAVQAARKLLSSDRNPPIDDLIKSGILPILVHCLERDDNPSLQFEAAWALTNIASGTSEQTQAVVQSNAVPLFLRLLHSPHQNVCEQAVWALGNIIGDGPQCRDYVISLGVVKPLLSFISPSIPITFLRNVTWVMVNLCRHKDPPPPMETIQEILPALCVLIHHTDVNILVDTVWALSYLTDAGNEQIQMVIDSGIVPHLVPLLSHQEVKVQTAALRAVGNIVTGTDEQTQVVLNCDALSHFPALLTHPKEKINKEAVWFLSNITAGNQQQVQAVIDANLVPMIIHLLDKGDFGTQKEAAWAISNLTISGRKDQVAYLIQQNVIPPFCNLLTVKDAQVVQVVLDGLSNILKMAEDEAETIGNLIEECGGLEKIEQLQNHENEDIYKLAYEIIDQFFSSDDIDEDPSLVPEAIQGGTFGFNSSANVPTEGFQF
TUBB8, Q3ZCM7, UniProt Q3ZCM7, whole entry: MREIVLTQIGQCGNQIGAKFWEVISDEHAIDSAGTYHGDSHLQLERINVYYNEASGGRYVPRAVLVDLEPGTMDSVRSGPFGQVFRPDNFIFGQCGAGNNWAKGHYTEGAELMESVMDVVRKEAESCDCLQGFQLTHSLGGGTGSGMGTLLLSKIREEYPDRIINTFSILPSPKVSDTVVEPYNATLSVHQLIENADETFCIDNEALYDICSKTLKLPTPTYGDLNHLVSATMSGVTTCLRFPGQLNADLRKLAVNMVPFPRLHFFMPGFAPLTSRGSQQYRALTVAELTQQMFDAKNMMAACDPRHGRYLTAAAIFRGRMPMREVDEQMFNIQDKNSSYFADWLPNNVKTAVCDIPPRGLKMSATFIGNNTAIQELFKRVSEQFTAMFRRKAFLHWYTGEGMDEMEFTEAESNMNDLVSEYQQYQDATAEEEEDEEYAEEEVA

Experiments:
Experiment in all cases: PRISMA enrichment of interactor (LFQ) in peptide spot vs all other peptide spots (log2 fold change); higher = stronger / more specific binding of the interactor to the peptide
ANP32A, P39687 = molecular target: ANP32A, P39687
Method: (§1)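 PRISMA: 221 full-length sORF-encoded peptides (3-15 aa), plus SOS1/GLUT1 control peptides, were spot-synthesized on cellulose membranes in triplicate. Membranes were incubated with HEK293T lysate, and bound proteins were identified by LC-MS/MS with LFQ. Enrichment is the log2 fold change versus all other peptide spots; only significant interactors are listed (cutoff c=6, x0=2.8).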

ANP32B, Q92688 = molecular target: ANP32B, Q92688
Method: as §1

ANP32E, Q9BTT0 = molecular target: ANP32E, Q9BTT0
Method: as §1

CTR9, Q6PD62 = molecular target: CTR9, Q6PD62
Method: as §1

HTATSF1, O43719 = molecular target: HTATSF1, O43719
Method: as §1

LARP7, Q4G0J3 = molecular target: LARP7, Q4G0J3
Method: as §1

NAP1L1, P55209 = molecular target: NAP1L1, P55209
Method: as §1

NAP1L4, Q99733 = molecular target: NAP1L4, Q99733
Method: as §1

NOLC1, Q14978 = molecular target: NOLC1, Q14978
Method: as §1

NPM3, O75607 = molecular target: NPM3, O75607
Method: as §1

PAF1, Q8N7H5 = molecular target: PAF1, Q8N7H5
Method: as §1

PTCD3, Q96EY7 = molecular target: PTCD3, Q96EY7
Method: as §1

RO60, P10155 = molecular target: RO60, P10155
Method: as §1

SART3, Q15020 = molecular target: SART3, Q15020
Method: as §1

SUPT16H, Q9Y5B9 = molecular target: SUPT16H, Q9Y5B9
Method: as §1

SUPT5H, O00267 = molecular target: SUPT5H, O00267
Method: as §1

WBP11, Q9Y2W2 = molecular target: WBP11, Q9Y2W2
Method: as §1

ZRANB2, O95218 = molecular target: ZRANB2, O95218
Method: as §1

ATP6AP1, Q15904 = molecular target: ATP6AP1, Q15904
Method: as §1

DHTKD1, Q96HY7 = molecular target: DHTKD1, Q96HY7
Method: as §1

DLX6, P56179 = molecular target: DLX6, P56179
Method: as §1

HASPIN, Q8TF76 = molecular target: HASPIN, Q8TF76
Method: as §1

IDH3B, O43837 = molecular target: IDH3B, O43837
Method: as §1

KPNA4, O00629 = molecular target: KPNA4, O00629
Method: as §1

LTF, P02788 = molecular target: LTF, P02788
Method: as §1

MRPL10, Q7Z7H8 = molecular target: MRPL10, Q7Z7H8
Method: as §1

MRPL39, Q9NYK5 = molecular target: MRPL39, Q9NYK5
Method: as §1

MRPL9, Q9BYD2 = molecular target: MRPL9, Q9BYD2
Method: as §1

MRPS35, P82673 = molecular target: MRPS35, P82673
Method: as §1

TUBB8, Q3ZCM7 = molecular target: TUBB8, Q3ZCM7
Method: as §1

UQCRC1, P31930 = molecular target: UQCRC1, P31930
Method: as §1

Row | Binder | PRISMA enrichment of interactor (log2) (ANP32A, P39687) | PRISMA enrichment of interactor (log2) (ANP32B, Q92688) | PRISMA enrichment of interactor (log2) (ANP32E, Q9BTT0) | PRISMA enrichment of interactor (log2) (CTR9, Q6PD62) | PRISMA enrichment of interactor (log2) (HTATSF1, O43719) | PRISMA enrichment of interactor (log2) (LARP7, Q4G0J3) | PRISMA enrichment of interactor (log2) (NAP1L1, P55209) | PRISMA enrichment of interactor (log2) (NAP1L4, Q99733) | PRISMA enrichment of interactor (log2) (NOLC1, Q14978) | PRISMA enrichment of interactor (log2) (NPM3, O75607) | PRISMA enrichment of interactor (log2) (PAF1, Q8N7H5) | PRISMA enrichment of interactor (log2) (PTCD3, Q96EY7) | PRISMA enrichment of interactor (log2) (RO60, P10155) | PRISMA enrichment of interactor (log2) (SART3, Q15020) | PRISMA enrichment of interactor (log2) (SUPT16H, Q9Y5B9) | PRISMA enrichment of interactor (log2) (SUPT5H, O00267) | PRISMA enrichment of interactor (log2) (WBP11, Q9Y2W2) | PRISMA enrichment of interactor (log2) (ZRANB2, O95218) | PRISMA enrichment of interactor (log2) (ATP6AP1, Q15904) | PRISMA enrichment of interactor (log2) (DHTKD1, Q96HY7) | PRISMA enrichment of interactor (log2) (DLX6, P56179) | PRISMA enrichment of interactor (log2) (HASPIN, Q8TF76) | PRISMA enrichment of interactor (log2) (IDH3B, O43837) | PRISMA enrichment of interactor (log2) (KPNA4, O00629) | PRISMA enrichment of interactor (log2) (LTF, P02788) | PRISMA enrichment of interactor (log2) (MRPL10, Q7Z7H8) | PRISMA enrichment of interactor (log2) (MRPL39, Q9NYK5) | PRISMA enrichment of interactor (log2) (MRPL9, Q9BYD2) | PRISMA enrichment of interactor (log2) (MRPS35, P82673) | PRISMA enrichment of interactor (log2) (TUBB8, Q3ZCM7) | PRISMA enrichment of interactor (log2) (UQCRC1, P31930)
1 | MRRRRRRM [ABI2] | 6.25 | 7.48 | 8.16 | 6 | 6 | 5.95 | 7.01 ± 0.68 | 6.65 | 5.15 | 6.8 | 5.98 | 5.79 | 5.69 | 5.23 | 7.11 | 5.88 | 5.69 | 5.26 |  |  |  |  |  |  |  |  |  |  |  |  | 
2 | MAASRTVMAVGRRR [NF1] | 5.7 | 7.06 | 6.45 |  |  |  | 6.44 ± 0.86 | 6.35 |  |  |  | 5.5 |  |  |  |  |  |  | 9.25 | 5.03 | 5.99 | 6.47 | 6.84 | 5.15 | 4.35 | 5.9 | 6.31 | 5.26 | 5.57 | 5.84 | 6.79
